Values from PubChem BioAssay AID504808 (Drosophila RNAi Screening Center, 2011)
The screen tested about 21,000 reagents; shown is an unselected part of those with a known target gene and a result. Over the whole deposit, 18 (0.084%) got an active call. 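Raw counts without plate normalisation, one of two replicates; the ratio scores behind the calls were not deposited.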 Not stated in the record: the amount of reagent, the time to read-out.

Screen: 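Chromatin factors that keep E2F targets switched off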 (primary screen)
System: Drosophila S2 cells
Reagent: long dsRNA against Drosophila genes
Detection: 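Dual luciferase plate measurements; E2F-specific signal taken as firefly over Renilla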
Direction: E2F firefly: higher = more E2F reporter activity; Renilla normaliser: higher = more normaliser reporter signal
Rule for the call: 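a knock-down counted as active when the firefly/Renilla E2F signal rose above 50%, a threshold chosen arbitrarily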

nec [DRSC06769] scored E2F firefly, rep 1 = 1.33e5; Renilla normaliser, rep 1 = 4710; inactive.
Silencing of CG13870 [DRSC06429] gave: E2F firefly, rep 1 = 1.31e5; Renilla normaliser, rep 1 = 5295; inactive.
CG3902 [DRSC10387] scored E2F firefly, rep 1 = 1.19e5; Renilla normaliser, rep 1 = 5390; inactive.
S-Lap3 [DRSC10956] gave E2F firefly, rep 1 = 83132; Renilla normaliser, rep 1 = 3422; inactive.
After knock-down of Non2 [DRSC08272] the results were E2F firefly, rep 1 = 82911; Renilla normaliser, rep 1 = 3431; inactive.
After knock-down of mRpL47 [DRSC16827], the screen gave E2F firefly, rep 1 = 1.16e5; Renilla normaliser, rep 1 = 6534; inactive.
For CG3748 [DRSC02716], the entry reads E2F firefly, rep 1 = 1.58e5; Renilla normaliser, rep 1 = 5274; inactive.
Depletion of Obp46a [DRSC06220] came out at: E2F firefly, rep 1 = 1.49e5; Renilla normaliser, rep 1 = 5019; inactive.
For Muc30E [DRSC01101], the values are E2F firefly, rep 1 = 1.22e5; Renilla normaliser, rep 1 = 6520; inactive.
Knock-down of CG8141 [DRSC16387] came out at: E2F firefly, rep 1 = 1.16e5; Renilla normaliser, rep 1 = 5523; inactive.
For Atg18a [DRSC10943], the values are E2F firefly, rep 1 = 83547; Renilla normaliser, rep 1 = 4351; inactive.
Dbp73D [DRSC11142] showed E2F firefly, rep 1 = 69536; Renilla normaliser, rep 1 = 3355; inactive.
CG15599 [DRSC19668] scored E2F firefly, rep 1 = 1.85e5; Renilla normaliser, rep 1 = 5499; inactive.
CG5928 [DRSC18391] showed E2F firefly, rep 1 = 1.11e5; Renilla normaliser, rep 1 = 5856; inactive.
COX7AL2 [DRSC00099] showed E2F firefly, rep 1 = 1.30e5; Renilla normaliser, rep 1 = 5064; inactive.
Against Ostgamma [DRSC03074], the entry reads E2F firefly, rep 1 = 93628; Renilla normaliser, rep 1 = 4174; inactive.

No new results follow: an excerpt of the list.
CG3902 [DRSC10387] — E2F firefly, rep 1 = 1.19e5; Renilla normaliser, rep 1 = 5390; call = inactive
S-Lap3 [DRSC10956] — E2F firefly, rep 1 = 83132; Renilla normaliser, rep 1 = 3422; call = inactive
Non2 [DRSC08272] — E2F firefly, rep 1 = 82911; Renilla normaliser, rep 1 = 3431; call = inactive
mRpL47 [DRSC16827] — E2F firefly, rep 1 = 1.16e5; Renilla normaliser, rep 1 = 6534; call = inactive
CG3748 [DRSC02716] — E2F firefly, rep 1 = 1.58e5; Renilla normaliser, rep 1 = 5274; call = inactive
Obp46a [DRSC06220] — E2F firefly, rep 1 = 1.49e5; Renilla normaliser, rep 1 = 5019; call = inactive

The results go on.
CG12929 [DRSC06242] gave E2F firefly, rep 1 = 1.58e5; Renilla normaliser, rep 1 = 4711; inactive.
Against CG8870 [DRSC16452], the values are E2F firefly, rep 1 = 1.01e5; Renilla normaliser, rep 1 = 5583; inactive.
CG9132 [DRSC20159] showed E2F firefly, rep 1 = 1.42e5; Renilla normaliser, rep 1 = 10015; inactive.
For Gp93 [DRSC15827], the entry reads E2F firefly, rep 1 = 1642; Renilla normaliser, rep 1 = 804; inactive.
Pgant9 [DRSC05621] gave E2F firefly, rep 1 = 1.59e5; Renilla normaliser, rep 1 = 6872; inactive.
Against Pgant9 [DRSC06584] the deposit lists E2F firefly, rep 1 = 1.50e5; Renilla normaliser, rep 1 = 5166; inactive.
Silencing of Pgant9 [DRSC07185] came out at: E2F firefly, rep 1 = 1.36e5; Renilla normaliser, rep 1 = 5019; inactive.
Depletion of Pgant9 [DRSC07186] gave: E2F firefly, rep 1 = 1.44e5; Renilla normaliser, rep 1 = 4451; inactive.
Pgant9 [DRSC07187] scored E2F firefly, rep 1 = 1.55e5; Renilla normaliser, rep 1 = 5443; inactive.
Pgant9 [DRSC07189] scored E2F firefly, rep 1 = 1.56e5; Renilla normaliser, rep 1 = 4842; inactive.
Knock-down of fok [DRSC02103] gave: E2F firefly, rep 1 = 96165; Renilla normaliser, rep 1 = 4233; inactive.
Knock-down of Lgr4 [DRSC18969] came out at: E2F firefly, rep 1 = 93953; Renilla normaliser, rep 1 = 2882; inactive.
Silencing of Lgr4 [DRSC18970] came out at: E2F firefly, rep 1 = 78072; Renilla normaliser, rep 1 = 2217; inactive.
Lgr4 [DRSC19884] scored E2F firefly, rep 1 = 1.37e5; Renilla normaliser, rep 1 = 6958; inactive.
Silencing of CG10513 [DRSC14248] resulted in: E2F firefly, rep 1 = 1630; Renilla normaliser, rep 1 = 1064; inactive.
With knock-down of mAcon1 [DRSC01853], the screen gave E2F firefly, rep 1 = 97406; Renilla normaliser, rep 1 = 4419; inactive.
Against armi [DRSC08193] the deposit lists E2F firefly, rep 1 = 98996; Renilla normaliser, rep 1 = 4011; inactive.
CG42346 [DRSC20622] gave E2F firefly, rep 1 = 1.24e5; Renilla normaliser, rep 1 = 7040; inactive.
CG42346 [DRSC20644] showed E2F firefly, rep 1 = 1.26e5; Renilla normaliser, rep 1 = 7093; inactive.
Silencing of Cp190 [DRSC16607] came out at: E2F firefly, rep 1 = 78910; Renilla normaliser, rep 1 = 3284; inactive.
